Several values for one entry are separate records, joined by “and”; a condition that tells them apart may be missing. Equal entries are not always repeated. In all, about 580,000 compounds went through this assay and about 6,100 (1.1%) were called active. This list was built around the results that the source calls inconclusive (neither active nor inactive); the mix of calls is not that of the screen. Calls follow the shape of the dose curve; as a rule, active = well fitted inhibition curve with a large enough effect; inconclusive = small, poorly fitted or top-dose-only effect, or another doubt; inactive = no such curve, though single readings can be large or run the other way. Potencies of inconclusive entries are doubtful fits and often do not repeat.
Each compound was assayed against Polyunsaturated fatty acid lipoxygenase ALOX12 (Homo sapiens) (UniProt P18054) (assay: Primary qHTS assay for inhibitors of human arachidonate 12S-lipoxygenase (ALOX12): Round 2). Details: purified 12hLO, xylenol orange hydroperoxide absorbance; activity change, negative = inhibition: at 108 µM (top of the series) unless noted.
Method in brief: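 Purified human 12hLO at 150 nM in 25 mM Hepes, 0.01% Triton X-100, pH 7.0, preincubated 15 min at room temperature with compound. Reaction started with 40 uM arachidonic acid, 30 min at room temperature. Hydroperoxide measured by Fe-xylenol orange, 573/405 nm absorbance ratio.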
% is scaled to controls: 0 for no effect and ±100 for the full control effect; potency is read from the fitted curve at half-maximal effect.

The chains behind the UniProt entries cited, without tags or fusion partners.
UniProt P18054, whole entry, looked up: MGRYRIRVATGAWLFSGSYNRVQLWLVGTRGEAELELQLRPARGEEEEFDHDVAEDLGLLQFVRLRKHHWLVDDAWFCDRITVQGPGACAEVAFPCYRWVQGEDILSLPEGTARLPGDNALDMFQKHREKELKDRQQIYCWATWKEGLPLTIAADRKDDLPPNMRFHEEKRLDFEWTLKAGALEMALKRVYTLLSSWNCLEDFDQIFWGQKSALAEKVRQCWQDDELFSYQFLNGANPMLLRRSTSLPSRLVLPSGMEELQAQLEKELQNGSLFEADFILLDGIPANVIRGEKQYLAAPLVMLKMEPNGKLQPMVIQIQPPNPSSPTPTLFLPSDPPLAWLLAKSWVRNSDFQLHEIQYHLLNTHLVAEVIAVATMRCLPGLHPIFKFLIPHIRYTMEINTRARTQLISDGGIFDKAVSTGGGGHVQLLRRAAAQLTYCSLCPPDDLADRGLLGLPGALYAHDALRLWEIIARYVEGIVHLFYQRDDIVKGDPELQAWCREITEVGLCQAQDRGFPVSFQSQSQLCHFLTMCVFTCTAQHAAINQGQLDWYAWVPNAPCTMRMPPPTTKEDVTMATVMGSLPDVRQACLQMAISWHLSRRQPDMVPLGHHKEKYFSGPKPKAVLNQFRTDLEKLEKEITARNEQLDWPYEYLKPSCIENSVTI

Row | SMILES | Potency | activity change, negative = inhibition
1 | COc1ccccc1Cc1c(-c2ccc(Cl)cc2)nc2c(C)cc(Br)cn12 | inconclusive: 44.7 µM [inhibitor, partial curve, poor fit] | 
2 | CC(C)c1nc2c(c(-c3ccc(O)cc3)n1)CCN(Cc1ccc(F)cc1)CC2 | inconclusive: 44.7 µM [inhibitor, partial curve] | 
3 | O=c1c(-c2cccs2)cc(-n2c(=O)[nH]c3ccccc32)cn1-c1ccccc1 | inconclusive: 44.7 µM [inhibitor, partial curve, poor fit] | 
4 | Cc1cc(C(=O)N[C@H](C)c2onc(-c3cccnc3)c2C(=O)O)no1 | inconclusive: 31.6 µM [inhibitor, full curve] | 
5 | O=C(COC(=O)C1CCN(c2ccc(C(F)(F)F)cn2)CC1)c1ccc(F)cc1 | inconclusive: 56.2 µM [inhibitor, partial curve, poor fit] | 
6 | CC(=O)c1cccc(S(=O)(=O)NCCCN2CCOCC2)c1 | inconclusive: 79.4 µM [inhibitor, partial curve, poor fit] | 
7 | O=C(c1ccncc1)N1CCN(Cc2c[nH]c3ccccc23)CC1 | inconclusive: 0.447 µM [inhibitor, full curve, poor fit] | 
8 | CCONC(=O)C(C)Oc1ccc(OC)cc1 (stereo not drawn) |  | inactive: -38%
9 | N#Cc1ccc(C2=NC(C(F)(F)F)(C(F)(F)F)c3c(n(Cc4ccco4)c(=O)[nH]c3=O)N2)cc1 |  | inconclusive: -31.2% [inhibitor]
10 | O=C(Nc1ccccc1)Nc1ccccn1 |  | inactive: 0%
11 | COc1cc(/C=N/NC(=O)c2ccc3nc[nH]c3c2)cc(OC)c1OC(C)=O |  | inactive: 11.7%
12 | COCCn1c(C)cc(/C=C2/SC(=O)N(C(C)C(=O)OC)C2=O)c1C (stereo not drawn) | inconclusive: 112 µM [inhibitor, single point] | 
13 | CC1CCN(S(=O)(=O)c2ccc(NC(=O)C3=COCCO3)cc2)CC1 |  | inactive: 3.21%
14 | O=[N+]([O-])c1ccc(N2CCN(Cc3ccncc3)CC2)cc1 | inconclusive: 0.501 µM [inhibitor, full curve, poor fit] | 
15 | NC1=NC(c2c[nH]c3ccc(F)cc23)n2c(nc3ccccc32)N1 (stereo not drawn) | inconclusive: 70.8 µM [inhibitor, partial curve, poor fit] | 
16 | COc1ccc(C(=O)N2CCCC(Nc3ccc(C(C)C)cc3)C2)c(OC)n1 (stereo not drawn) | inconclusive: 44.7 µM [inhibitor, partial curve, poor fit] | 
17 | O=C(Nc1ncc(Cc2ccc(Cl)cc2)s1)C1=Cc2ccccc2OC1 |  | inactive: -27.2%
18 | O=C(CCSc1ccc(Br)cc1)c1ccc(O)cc1 |  | inactive: -22.7%
19 | CCN(CC)S(=O)(=O)c1ccc(N2CCCC2)c(NS(=O)(=O)c2ccc(OC)cc2)c1 | inactive and inconclusive: 56.2 µM [inhibitor, partial curve, poor fit] | 
20 | Cc1oc(-c2ccccc2)nc1Cn1nnc(C(=O)Nc2ccc3c(c2)OCCO3)c1N |  | inactive: -20.8%
21 | O=C(Nc1ccccc1)Nc1ncc([N+](=O)[O-])s1 | inconclusive: 56.2 µM [inhibitor, partial curve, poor fit] | 
22 | CCN(CC1CCCO1)S(=O)(=O)c1cccc(C#N)c1 (stereo not drawn) |  | inactive: -16.1%

Row | SMILES | Potency | activity change, negative = inhibition
23 | Cc1nn(-c2ccc(C(C)C)cc2)c(C)c1[C@@H]1C=C[C@@H](NC(=O)CC2(CC(=O)O)CCCC2)C1 |  | inactive: 9.29%
24 | CC(=O)C(Sc1nnnn1-c1ccccc1)C(C)=O | inconclusive: 3.55 µM [inhibitor, full curve, poor fit] | 
25 | CN1c2ccccc2C(O)=C(C(=S)Nc2ccc(F)c(Cl)c2)S1(=O)=O |  | inactive: 0.57%
26 | Cc1[nH]c(-c2ccc(F)cc2)cc1C(=O)N1CCN(c2ccc(Cl)cc2)CC1 |  | inactive: -9.64%
27 | C=CCn1c(=NC(=O)C2CCCCC2)sc2cc(NC(C)=O)ccc21 | inconclusive: 112 µM [inhibitor, single point] | 
28 | COc1ccccc1-c1nnc2n1C(C(=O)N(C)C)CC2 (stereo not drawn) | inconclusive: 112 µM [inhibitor, partial curve, poor fit] | 
29 | O=C(OCC(=O)N(CCc1ccccc1)Cc1ccccc1)c1cccc(O)c1 | inconclusive: 50.1 µM [inhibitor, partial curve, poor fit] | 
30 | CC(=O)/C(=C/N(C)C)C(=O)Nc1ccc(Cl)cc1Cl | inconclusive: 0.631 µM [inhibitor, full curve, poor fit] | 
31 | Cc1cccc(-c2ccc3c(c2)C2CC3CCN2Cc2ccc3c(c2)OCO3)c1 (stereo not drawn) |  | inactive: -10.3%
32 | CC(C(=O)c1ccc(Br)cc1)[n+]1cccc2ccccc21 (stereo not drawn) | inconclusive: 5.01 µM [inhibitor, full curve, poor fit] | 
33 | CCOC(=O)N1CCN(S(=O)(=O)c2ccc3[nH]cc(C(=O)O)c(=O)c3c2)CC1 | inconclusive: 0.794 µM [inhibitor, full curve, poor fit] | 
34 | Cc1ccc(S(=O)(=O)CNC(=S)c2cccc(C)c2)cc1 | inconclusive: 17.8 µM [inhibitor, full curve, poor fit] | 
35 | O=C(NC[C@H]1O[C@@H](CO)[C@@H](O)[C@H]1N1CCc2ccccc2C1)Nc1cccc(Cl)c1 | inconclusive: 14.1 µM [inhibitor, full curve] | 
36 | CC(C)C(=O)Nc1ccc(C2(C(=O)N3CCCCC3)CCCCC2)cc1 | inconclusive: 4.47 µM [inhibitor, full curve, poor fit] | 
37 | Fc1ccc(-c2cc(C(F)(F)F)nc(NCc3cccs3)n2)cc1 |  | inactive: -3.18%
38 | CCc1nnc2n1N=C(c1ccc(-c3cc(Cl)ccc3Cl)o1)CS2 | inconclusive: 44.7 µM [inhibitor, partial curve, poor fit] | 
39 | COC(=O)c1ccc(OCC(=O)c2ccccc2OC)cc1 | active: 20 µM | 
40 | Cc1onc(-c2ccccc2)c1C(=O)NCc1ccc2c(c1)OCO2 |  | inactive: 2.12%
41 | CCCCOc1ccc(CN2CCSCC2)cc1 | inconclusive: 7.08 µM [inhibitor, full curve, poor fit] | 
42 | Cc1ccc(OCCCN2CCC(C(O)(c3ccccc3)c3ccccc3)CC2)cc1 | inconclusive: 44.7 µM [inhibitor, partial curve] | 
43 | CC(=O)c1c(C)[nH]c(-c2csc(NC3CCCC3)n2)c1C | inconclusive: 44.7 µM [inhibitor, partial curve, poor fit] | 

Reformatted tab-delimited: 9 of the compounds above.
Row	SMILES	Potency	activity change, negative = inhibition
34	Cc1ccc(S(=O)(=O)CNC(=S)c2cccc(C)c2)cc1	inconclusive: 17.8 µM [inhibitor, full curve, poor fit]	
35	O=C(NC[C@H]1O[C@@H](CO)[C@@H](O)[C@H]1N1CCc2ccccc2C1)Nc1cccc(Cl)c1	inconclusive: 14.1 µM [inhibitor, full curve]	
36	CC(C)C(=O)Nc1ccc(C2(C(=O)N3CCCCC3)CCCCC2)cc1	inconclusive: 4.47 µM [inhibitor, full curve, poor fit]	
37	Fc1ccc(-c2cc(C(F)(F)F)nc(NCc3cccs3)n2)cc1		inactive: -3.18%
38	CCc1nnc2n1N=C(c1ccc(-c3cc(Cl)ccc3Cl)o1)CS2	inconclusive: 44.7 µM [inhibitor, partial curve, poor fit]	
39	COC(=O)c1ccc(OCC(=O)c2ccccc2OC)cc1	active: 20 µM	
40	Cc1onc(-c2ccccc2)c1C(=O)NCc1ccc2c(c1)OCO2		inactive: 2.12%
41	CCCCOc1ccc(CN2CCSCC2)cc1	inconclusive: 7.08 µM [inhibitor, full curve, poor fit]	
42	Cc1ccc(OCCCN2CCC(C(O)(c3ccccc3)c3ccccc3)CC2)cc1	inconclusive: 44.7 µM [inhibitor, partial curve]	
